Reference: article PMC12664036
These are yes or no findings as the source states them, for the method shown. Binding seen in cells or lysates may run through a third protein. A yes stands for co-enrichment or nearness to the bait. Other partners may have been found.

The chains behind the UniProt entries cited, without tags or fusion partners.
UniProt Q6ZPI0: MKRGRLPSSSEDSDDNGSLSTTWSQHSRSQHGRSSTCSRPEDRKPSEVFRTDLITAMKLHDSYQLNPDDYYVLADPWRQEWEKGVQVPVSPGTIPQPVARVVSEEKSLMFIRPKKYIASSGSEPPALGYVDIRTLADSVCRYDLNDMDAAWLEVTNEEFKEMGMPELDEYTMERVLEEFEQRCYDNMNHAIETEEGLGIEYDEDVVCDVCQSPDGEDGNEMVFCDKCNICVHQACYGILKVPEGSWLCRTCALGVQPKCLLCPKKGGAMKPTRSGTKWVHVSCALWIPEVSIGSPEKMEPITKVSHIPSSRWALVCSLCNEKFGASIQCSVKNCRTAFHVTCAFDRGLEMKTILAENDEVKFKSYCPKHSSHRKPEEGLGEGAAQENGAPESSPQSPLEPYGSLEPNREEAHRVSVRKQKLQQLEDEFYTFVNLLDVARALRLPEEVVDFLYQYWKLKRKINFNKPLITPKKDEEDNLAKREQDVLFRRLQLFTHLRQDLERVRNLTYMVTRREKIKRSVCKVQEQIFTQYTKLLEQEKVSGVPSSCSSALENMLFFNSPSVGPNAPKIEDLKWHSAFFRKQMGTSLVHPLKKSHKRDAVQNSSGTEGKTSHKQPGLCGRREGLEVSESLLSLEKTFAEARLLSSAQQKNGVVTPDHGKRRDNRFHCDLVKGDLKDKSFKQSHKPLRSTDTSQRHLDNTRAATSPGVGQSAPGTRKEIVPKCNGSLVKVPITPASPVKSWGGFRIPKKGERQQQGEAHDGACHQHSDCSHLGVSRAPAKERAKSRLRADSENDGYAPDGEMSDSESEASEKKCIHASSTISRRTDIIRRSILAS
UniProt P56546: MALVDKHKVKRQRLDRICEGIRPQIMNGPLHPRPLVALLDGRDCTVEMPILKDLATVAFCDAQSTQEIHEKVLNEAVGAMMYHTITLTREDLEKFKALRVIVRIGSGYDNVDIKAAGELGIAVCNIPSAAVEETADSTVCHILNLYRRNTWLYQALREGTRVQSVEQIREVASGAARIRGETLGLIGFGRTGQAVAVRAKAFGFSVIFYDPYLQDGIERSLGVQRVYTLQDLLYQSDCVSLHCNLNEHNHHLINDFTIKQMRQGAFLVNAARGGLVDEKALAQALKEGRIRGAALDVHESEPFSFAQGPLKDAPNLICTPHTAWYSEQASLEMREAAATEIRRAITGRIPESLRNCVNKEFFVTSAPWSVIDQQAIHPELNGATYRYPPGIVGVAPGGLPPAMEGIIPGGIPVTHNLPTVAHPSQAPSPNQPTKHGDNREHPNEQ

How the values were obtained:
[1] = molecular target: Oct4 (Pou5f1), endogenous in mouse embryonic stem cells (mouse (endogenous in mouse ESCs)) (UniProt P20263); assay: affinity purification with mass spectrometry; multimerised WT MORE dsDNA on FG magnetic beads (mutant DNA as control) incubated with Oct1 deficient mouse ESC lysate, 4 C, 4 h; washes 100, 200, 300 mM KCl; elution with 300 mM KCl and free DNA; LC-MS/MS, N = 3; Oct4 is held through the DNA
[2] = molecular target: Oct4 (Pou5f1), endogenous in mouse embryonic stem cells (mouse (endogenous in mouse ESCs)) (UniProt P20263); assay: affinity purification with mass spectrometry; multimerised WT octamer dsDNA on FG magnetic beads (mutant DNA as control) incubated with Oct1 deficient mouse ESC lysate, 4 C, 4 h; washes 100, 200, 300 mM KCl; elution with 300 mM KCl and free DNA; LC-MS/MS, N = 3; Oct4 is held through the DNA

binding [1]	binding [2]	Substance
binds		Jade1, endogenous in mouse embryonic stem cells (from UniProt Q6ZPI0 1-834)
	binds	Ctbp2, endogenous in mouse embryonic stem cells (from UniProt P56546 1-445)
